Some of the results follow.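 The calls were made as follows: active = dose-dependent thermal stabilisation significant by F-test of dose-response against flat model at 10% FDR; inactive = not significant.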
Compound: Nc1nc2c(ncn2[C@@H]2O[C@H](COP(=O)(O)OP(=O)(O)OP(=O)(O)O)[C@@H](O)[C@H]2O)c(=O)[nH]1
Assay: dose-dependent thermal stabilisation call (2D-TPP, DLPTP, 10% FDR) (binary (1 = stabilised)); higher = stabilised by the compound
Settings: system: Jurkat gel-filtered lysate; concentration range 1-500 µM

Sequences of proteins named here, by UniProt entry; tags and fusion partners are left off. A change or cut given only in a name is not applied to a line headed by its entry.
UniProt Q15185: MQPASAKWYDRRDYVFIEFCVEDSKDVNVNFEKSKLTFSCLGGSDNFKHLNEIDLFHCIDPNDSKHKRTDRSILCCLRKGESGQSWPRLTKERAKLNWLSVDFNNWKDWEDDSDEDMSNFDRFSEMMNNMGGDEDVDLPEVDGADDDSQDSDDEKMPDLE
UniProt P41743, whole entry: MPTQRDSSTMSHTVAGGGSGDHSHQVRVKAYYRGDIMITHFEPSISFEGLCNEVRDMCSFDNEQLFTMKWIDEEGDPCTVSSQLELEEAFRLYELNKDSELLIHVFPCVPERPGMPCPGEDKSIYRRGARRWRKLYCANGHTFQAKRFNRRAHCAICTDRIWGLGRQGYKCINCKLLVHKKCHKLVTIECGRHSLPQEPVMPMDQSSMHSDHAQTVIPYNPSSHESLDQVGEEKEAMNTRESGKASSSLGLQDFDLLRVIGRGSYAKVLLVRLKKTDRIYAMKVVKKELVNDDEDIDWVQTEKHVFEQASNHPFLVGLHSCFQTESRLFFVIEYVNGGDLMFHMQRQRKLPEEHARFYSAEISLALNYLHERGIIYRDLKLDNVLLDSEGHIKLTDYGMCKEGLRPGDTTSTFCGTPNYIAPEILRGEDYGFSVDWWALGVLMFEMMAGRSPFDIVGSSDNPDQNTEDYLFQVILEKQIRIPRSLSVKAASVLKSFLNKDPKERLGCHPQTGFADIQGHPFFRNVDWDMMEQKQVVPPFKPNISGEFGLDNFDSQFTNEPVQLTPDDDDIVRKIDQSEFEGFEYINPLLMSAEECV
UniProt Q8TB72: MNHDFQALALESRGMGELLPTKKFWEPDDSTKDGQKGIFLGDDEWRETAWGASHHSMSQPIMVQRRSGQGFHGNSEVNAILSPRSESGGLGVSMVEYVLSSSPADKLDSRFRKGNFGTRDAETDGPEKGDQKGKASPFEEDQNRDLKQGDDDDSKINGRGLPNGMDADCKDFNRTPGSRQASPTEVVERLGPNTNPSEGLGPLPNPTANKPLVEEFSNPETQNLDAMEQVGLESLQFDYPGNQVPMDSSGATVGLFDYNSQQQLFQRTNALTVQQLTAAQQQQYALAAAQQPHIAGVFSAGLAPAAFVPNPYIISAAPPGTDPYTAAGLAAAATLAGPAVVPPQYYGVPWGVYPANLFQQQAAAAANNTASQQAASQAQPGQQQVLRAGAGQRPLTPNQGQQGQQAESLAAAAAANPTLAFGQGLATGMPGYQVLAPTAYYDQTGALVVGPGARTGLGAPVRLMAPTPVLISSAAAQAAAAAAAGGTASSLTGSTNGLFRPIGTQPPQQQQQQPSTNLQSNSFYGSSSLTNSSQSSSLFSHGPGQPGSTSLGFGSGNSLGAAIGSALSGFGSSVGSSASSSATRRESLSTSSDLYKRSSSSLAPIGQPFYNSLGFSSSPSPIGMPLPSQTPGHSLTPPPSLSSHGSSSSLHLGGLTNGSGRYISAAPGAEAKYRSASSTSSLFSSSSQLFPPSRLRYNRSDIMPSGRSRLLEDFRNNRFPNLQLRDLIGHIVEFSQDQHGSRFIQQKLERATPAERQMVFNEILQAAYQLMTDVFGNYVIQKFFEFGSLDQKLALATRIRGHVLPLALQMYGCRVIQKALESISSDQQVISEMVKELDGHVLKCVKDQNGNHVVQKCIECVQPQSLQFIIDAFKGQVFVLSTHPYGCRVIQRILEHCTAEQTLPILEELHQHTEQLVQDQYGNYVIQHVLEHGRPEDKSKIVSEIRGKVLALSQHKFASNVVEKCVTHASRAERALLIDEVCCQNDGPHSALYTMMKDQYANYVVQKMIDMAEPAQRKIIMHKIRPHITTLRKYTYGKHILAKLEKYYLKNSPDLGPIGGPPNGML
UniProt P48634: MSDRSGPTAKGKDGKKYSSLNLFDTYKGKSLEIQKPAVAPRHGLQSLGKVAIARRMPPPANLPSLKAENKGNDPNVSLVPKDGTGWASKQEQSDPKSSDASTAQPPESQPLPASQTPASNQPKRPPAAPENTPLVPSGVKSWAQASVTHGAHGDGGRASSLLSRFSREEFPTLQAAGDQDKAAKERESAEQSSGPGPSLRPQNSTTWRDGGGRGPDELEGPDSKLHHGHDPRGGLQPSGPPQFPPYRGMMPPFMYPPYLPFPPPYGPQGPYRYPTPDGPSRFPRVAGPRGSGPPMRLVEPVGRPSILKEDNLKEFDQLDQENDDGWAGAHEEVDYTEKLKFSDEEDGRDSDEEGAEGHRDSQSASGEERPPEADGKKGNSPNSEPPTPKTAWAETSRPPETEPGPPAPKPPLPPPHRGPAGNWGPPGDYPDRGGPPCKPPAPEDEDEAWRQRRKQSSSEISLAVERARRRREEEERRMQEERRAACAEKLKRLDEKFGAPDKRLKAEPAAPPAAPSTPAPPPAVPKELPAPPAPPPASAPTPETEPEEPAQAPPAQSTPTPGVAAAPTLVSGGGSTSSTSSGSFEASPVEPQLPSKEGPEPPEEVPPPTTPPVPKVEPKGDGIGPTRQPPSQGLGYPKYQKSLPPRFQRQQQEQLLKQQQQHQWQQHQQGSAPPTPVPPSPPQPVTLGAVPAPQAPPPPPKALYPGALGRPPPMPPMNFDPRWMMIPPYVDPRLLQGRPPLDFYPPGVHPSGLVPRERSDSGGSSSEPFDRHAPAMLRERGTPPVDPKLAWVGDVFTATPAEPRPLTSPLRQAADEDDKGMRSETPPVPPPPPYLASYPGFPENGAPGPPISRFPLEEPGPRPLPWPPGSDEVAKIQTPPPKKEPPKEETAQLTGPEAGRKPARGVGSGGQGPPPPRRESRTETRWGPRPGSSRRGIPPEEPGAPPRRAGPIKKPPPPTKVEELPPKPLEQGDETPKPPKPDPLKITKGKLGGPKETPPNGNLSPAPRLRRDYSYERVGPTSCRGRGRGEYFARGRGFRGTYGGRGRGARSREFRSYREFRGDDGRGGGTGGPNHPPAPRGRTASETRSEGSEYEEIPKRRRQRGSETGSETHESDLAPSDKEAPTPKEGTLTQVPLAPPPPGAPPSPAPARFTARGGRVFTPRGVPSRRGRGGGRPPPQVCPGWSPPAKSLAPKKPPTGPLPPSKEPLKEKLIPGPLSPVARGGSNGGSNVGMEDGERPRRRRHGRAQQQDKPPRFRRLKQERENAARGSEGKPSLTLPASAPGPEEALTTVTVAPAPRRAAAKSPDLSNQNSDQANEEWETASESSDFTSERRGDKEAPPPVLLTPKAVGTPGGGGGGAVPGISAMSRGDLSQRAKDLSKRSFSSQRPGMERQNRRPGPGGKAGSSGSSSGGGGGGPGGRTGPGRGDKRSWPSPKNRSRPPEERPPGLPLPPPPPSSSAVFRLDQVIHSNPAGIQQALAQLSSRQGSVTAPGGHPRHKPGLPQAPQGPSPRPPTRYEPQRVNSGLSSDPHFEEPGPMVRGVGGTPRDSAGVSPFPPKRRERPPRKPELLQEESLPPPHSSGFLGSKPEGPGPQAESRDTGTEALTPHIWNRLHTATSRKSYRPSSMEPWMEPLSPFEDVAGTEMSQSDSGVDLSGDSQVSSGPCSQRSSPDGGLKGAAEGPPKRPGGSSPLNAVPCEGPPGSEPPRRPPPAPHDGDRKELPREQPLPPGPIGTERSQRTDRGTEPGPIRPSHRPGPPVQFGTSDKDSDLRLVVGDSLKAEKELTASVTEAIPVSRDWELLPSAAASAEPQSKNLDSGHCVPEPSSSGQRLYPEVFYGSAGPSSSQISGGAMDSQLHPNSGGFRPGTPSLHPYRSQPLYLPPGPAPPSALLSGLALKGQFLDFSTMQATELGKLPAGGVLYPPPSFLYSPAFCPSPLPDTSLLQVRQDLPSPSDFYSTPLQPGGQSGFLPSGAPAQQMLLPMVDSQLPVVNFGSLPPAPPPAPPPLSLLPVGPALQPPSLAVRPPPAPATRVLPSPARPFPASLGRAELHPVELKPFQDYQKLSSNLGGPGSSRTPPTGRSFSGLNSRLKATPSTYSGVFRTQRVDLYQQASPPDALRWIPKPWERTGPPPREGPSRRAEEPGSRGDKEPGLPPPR
UniProt Q13131: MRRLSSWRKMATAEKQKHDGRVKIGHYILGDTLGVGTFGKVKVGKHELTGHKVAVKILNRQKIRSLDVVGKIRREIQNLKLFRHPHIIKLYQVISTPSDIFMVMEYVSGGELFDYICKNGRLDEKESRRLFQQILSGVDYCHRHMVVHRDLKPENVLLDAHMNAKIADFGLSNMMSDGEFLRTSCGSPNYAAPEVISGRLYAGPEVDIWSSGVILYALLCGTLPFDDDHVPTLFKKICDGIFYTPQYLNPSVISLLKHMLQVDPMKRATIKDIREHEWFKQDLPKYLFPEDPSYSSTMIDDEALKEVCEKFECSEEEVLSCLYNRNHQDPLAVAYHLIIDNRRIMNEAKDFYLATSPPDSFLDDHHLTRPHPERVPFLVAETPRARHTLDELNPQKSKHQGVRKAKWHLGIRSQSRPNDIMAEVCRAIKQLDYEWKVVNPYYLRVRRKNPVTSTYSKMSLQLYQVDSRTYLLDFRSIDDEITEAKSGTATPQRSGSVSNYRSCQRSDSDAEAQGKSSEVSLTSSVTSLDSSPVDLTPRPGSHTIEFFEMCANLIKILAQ
UniProt Q96PU8: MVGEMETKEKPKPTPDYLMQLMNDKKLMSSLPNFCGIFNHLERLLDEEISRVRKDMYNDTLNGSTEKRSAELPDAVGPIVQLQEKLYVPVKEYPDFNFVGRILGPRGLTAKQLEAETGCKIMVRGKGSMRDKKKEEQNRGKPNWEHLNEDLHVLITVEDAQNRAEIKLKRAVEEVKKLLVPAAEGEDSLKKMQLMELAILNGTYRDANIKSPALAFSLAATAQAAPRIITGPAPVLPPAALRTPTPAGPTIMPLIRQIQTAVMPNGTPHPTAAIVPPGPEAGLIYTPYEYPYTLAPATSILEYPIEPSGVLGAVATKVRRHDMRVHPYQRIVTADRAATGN
UniProt Q9Y617: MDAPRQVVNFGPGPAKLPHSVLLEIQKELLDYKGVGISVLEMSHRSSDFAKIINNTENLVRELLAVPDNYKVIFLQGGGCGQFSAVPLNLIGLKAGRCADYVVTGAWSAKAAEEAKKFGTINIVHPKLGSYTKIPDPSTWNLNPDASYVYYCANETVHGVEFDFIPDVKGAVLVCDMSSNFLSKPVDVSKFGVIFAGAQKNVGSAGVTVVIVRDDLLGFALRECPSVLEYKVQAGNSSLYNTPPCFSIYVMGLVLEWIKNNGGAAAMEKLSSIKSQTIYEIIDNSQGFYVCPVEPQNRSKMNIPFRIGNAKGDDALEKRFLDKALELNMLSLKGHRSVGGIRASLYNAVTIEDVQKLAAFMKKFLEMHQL
UniProt Q96B01: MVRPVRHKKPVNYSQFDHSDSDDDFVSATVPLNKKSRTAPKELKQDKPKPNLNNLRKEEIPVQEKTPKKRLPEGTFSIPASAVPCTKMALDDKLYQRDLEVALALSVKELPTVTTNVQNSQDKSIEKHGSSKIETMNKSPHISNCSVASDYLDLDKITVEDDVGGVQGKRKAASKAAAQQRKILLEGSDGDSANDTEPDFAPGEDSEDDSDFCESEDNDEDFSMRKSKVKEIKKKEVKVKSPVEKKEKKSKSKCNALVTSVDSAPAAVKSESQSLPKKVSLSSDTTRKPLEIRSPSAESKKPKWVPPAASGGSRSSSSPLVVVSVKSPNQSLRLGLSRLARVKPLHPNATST
UniProt P49721: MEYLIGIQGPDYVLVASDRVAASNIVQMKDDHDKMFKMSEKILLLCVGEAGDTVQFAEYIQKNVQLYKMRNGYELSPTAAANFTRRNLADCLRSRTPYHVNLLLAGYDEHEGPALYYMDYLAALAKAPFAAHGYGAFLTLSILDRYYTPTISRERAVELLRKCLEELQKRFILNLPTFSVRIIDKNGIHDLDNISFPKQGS
UniProt P54619: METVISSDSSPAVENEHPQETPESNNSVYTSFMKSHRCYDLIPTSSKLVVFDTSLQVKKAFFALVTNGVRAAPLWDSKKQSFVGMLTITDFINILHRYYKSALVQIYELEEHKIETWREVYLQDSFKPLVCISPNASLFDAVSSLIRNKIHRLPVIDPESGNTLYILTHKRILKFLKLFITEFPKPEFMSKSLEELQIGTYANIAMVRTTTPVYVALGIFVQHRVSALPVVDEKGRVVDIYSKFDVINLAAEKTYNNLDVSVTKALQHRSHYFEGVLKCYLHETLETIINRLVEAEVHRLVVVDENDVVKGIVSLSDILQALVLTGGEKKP
UniProt O43251: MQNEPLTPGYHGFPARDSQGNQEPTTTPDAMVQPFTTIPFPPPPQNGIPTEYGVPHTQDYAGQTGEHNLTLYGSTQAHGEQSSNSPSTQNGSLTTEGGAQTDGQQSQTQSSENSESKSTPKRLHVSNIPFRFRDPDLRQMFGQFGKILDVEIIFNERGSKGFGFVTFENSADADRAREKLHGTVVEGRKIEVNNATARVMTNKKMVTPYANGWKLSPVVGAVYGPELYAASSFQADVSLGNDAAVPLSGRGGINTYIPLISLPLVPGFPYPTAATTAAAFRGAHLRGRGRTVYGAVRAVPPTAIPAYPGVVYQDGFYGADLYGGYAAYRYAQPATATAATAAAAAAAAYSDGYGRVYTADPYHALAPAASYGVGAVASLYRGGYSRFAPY

| Target | dose-dependent thermal stabilisation call |
| --- | --- |
| PTGES3 (UniProt Q15185) | inactive: 0 |
| PSMC4 (UniProt P43686) | inactive: 0 |
| PRKCI (UniProt P41743) | inactive: 0 |
| RBM38 (UniProt Q9H0Z9) | inactive: 0 |
| PSAP (UniProt P07602) | inactive: 0 |
| PUM2 (UniProt Q8TB72) | inactive: 0 |
| PRRC2A (UniProt P48634) | inactive: 0 |
| PRKAA1 (UniProt Q13131) | inactive: 0 |
| PRPF19 (UniProt Q9UMS4) | inactive: 0 |
| PRPF18 (UniProt Q99633) | inactive: 0 |
| PREP (UniProt P48147) | inactive: 0 |
| QKI (UniProt Q96PU8) | inactive: 0 |
| PSAT1 (UniProt Q9Y617) | inactive: 0 |
| PSPH (UniProt P78330) | inactive: 0 |
| RAB22A (UniProt Q9UL26) | inactive: 0 |
| RBM4B (UniProt Q9BQ04) | active: 1 |
| PRPF39 (UniProt Q86UA1) | inactive: 0 |
| RBBP4 (UniProt Q09028) | inactive: 0 |

In another format: results already given
Target	dose-dependent thermal stabilisation call
PRKCI (UniProt P41743)	inactive: 0
PREP (UniProt P48147)	inactive: 0

(further entries)

| Target | dose-dependent thermal stabilisation call |
| --- | --- |
| RC3H1 (UniProt Q5TC82) | inactive: 0 |
| PSME3 (UniProt P61289) | inactive: 0 |
| RBM39 (UniProt Q14498) | inactive: 0 |
| PRKAR2A (UniProt P13861) | inactive: 0 |
| RAD51AP1 (UniProt Q96B01) | inactive: 0 |
| PSMB2 (UniProt P49721) | inactive: 0 |
| UniProt Q6ZT62 | inactive: 0 |
| PSME4 (UniProt Q14997) | inactive: 0 |
| PRIM1 (UniProt P49642) | inactive: 0 |
| RALBP1 (UniProt Q15311) | active: 1 |
| PRKAG1 (UniProt P54619) | inactive: 0 |
| RBL2 (UniProt Q08999) | inactive: 0 |
| RBFOX2 (UniProt O43251) | inactive: 0 |
| PSMA7 (UniProt O14818) | inactive: 0 |
| RAB3GAP2 (UniProt Q9H2M9) | inactive: 0 |
| RAB3GAP1 (UniProt Q15042) | active: 1 |
| RAC1 (UniProt P63000) | inactive: 0 |
| RABGGTB (UniProt P53611) | inactive: 0 |

Reference: the supplement of paper PMC7666118
